Experimental data published in paper PMC3924264.
Results are given in words; binding and its absence hold for the method and conditions named. Binding seen in cells or lysates may run through a third protein. Some results given as binding are weak or reduced against the parent protein; the word gives no strength.

Sequences of proteins named here, by UniProt entry; tags and fusion partners are left off. Residues count along the entry.
UniProt P22888, residues 27-699: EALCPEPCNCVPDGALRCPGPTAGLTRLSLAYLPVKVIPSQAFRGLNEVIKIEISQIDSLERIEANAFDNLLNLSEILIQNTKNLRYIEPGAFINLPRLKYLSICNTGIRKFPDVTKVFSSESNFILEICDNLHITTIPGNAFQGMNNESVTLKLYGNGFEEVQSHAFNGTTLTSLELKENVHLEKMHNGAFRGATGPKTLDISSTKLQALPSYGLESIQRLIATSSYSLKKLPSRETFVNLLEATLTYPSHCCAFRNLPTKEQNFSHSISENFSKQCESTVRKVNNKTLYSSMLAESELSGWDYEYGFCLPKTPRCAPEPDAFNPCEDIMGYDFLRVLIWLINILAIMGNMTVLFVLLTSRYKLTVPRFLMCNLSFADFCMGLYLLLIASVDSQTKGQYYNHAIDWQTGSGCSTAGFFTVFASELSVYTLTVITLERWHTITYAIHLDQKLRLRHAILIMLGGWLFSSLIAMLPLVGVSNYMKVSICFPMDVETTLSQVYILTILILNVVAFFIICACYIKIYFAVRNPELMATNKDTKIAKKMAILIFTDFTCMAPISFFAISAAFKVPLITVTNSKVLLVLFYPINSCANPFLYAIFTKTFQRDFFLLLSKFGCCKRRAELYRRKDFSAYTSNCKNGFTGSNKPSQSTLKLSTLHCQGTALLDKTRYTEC

Experiments:
[1] = molecular target: FLAG-tagged human luteinizing hormone receptor (human) (UniProt P22888); experiment: co-IP; cells cross-linked with 1 mM DSP for 2 h at 4 °C; lysis in 0.5% Triton, 50 mM Tris-HCl, 140 mM NaCl, 0.5 mM EDTA; FLAG-tagged receptors precipitated overnight on M2-agarose; immunoblot of FLAG and endogenous GIPC
[2] = molecular target: FLAG-tagged human β2-adrenergic receptor (human) (UniProt P07550); experiment: as above

- binding [1]: binds
- binding [2]: no binding
B1: GAIP-interacting protein C terminus (protein, UniProt O14908 1-333)
chain: MPLGLGRRKKAPPLVENEEAEPGRGGLGVGEPGPLGGGGSGGPQMGLPPPPPALRPRLVFHTQLAHGSPTGRIEGFTNVKELYGKIAEAFRLPTAEVMFCTLNTHKVDMDKLLGGQIGLEDFIFAHVKGQRKEVEVFKSEDALGLTITDNGAGYAFIKRIKEGSVIDHIHLISVGDMIEAINGQSLLGCRHYEVARLLKELPRGRTFTLKLTEPRKAFDMISQRSAGGRPGSGPQLGTGRGTLRLRSRGPATVEDLPSAFEEKAIEKVDDLLESYMGIRDTELAATMVELGKDKRNPDELAEALDERLGDFAFPDEFVFDVWGAIGDAKVGRY
